Results taken from article PMC10060354, “Discovery of a small molecule ligand of FRS2 that inhibits invasion and tumor growth” (Cellular Oncology, 2022).

What was measured:
[1] = test system: proteins of intact DAOY cells; assay: Thermal proteome profiling (TPP) in intact cells; assay type: cell-based, human
[2] = test system: proteins of DAOY cell lysates; assay: TPP in lysates; assay type: binding, human
[3] = intact DAOY cells, 10 µM, P < 0.05
[4] = DAOY lysates, 10 µM, P value < 0.05

`O=[N+]([O-])c1c(Cl)cc(O)c2c1C1C=CCC1C(c1ccc(Cl)cc1)N2` (centres unmarked) [Compound 7] was tested, and the “proteins destabilized (number)” value [1, 3] was 62, the “proteins destabilized (percent)” value [1, 3] was 1.12% and the “proteins stabilized (number)” value [1, 3] was 91. The “proteins stabilized (percent)” value [1, 3] was 1.64%, the “candidates with significant Tm difference” value ([1]; intact DAOY cells, 10 µM, adjusted P value < 0.05) was 153 and the “proteins with a Tm shift of equal or more than 5 °C (percent)” value ([1]; intact cells) was 0.65%. The “proteins destabilized (number)” value [2, 4] was 68, the “proteins destabilized (percent)” value [2, 4] was 1.21% and the “proteins stabilized (number)” value [2, 4] was 62. The “proteins stabilized (percent)” value [2, 4] was 1.1% and the “proteins with a Tm shift of equal or more than 5 °C (percent)” value ([2]; lysate) was 0.44%.
